Reference: article PMC10763294
No constants are given. Whether binding was seen depends on the method and setting. In cells and extracts the contact can be indirect. Some binding calls cover weakened binding; strength is not graded here.

The chains behind the UniProt entries cited, without tags or fusion partners.
UniProt Q8N9U0: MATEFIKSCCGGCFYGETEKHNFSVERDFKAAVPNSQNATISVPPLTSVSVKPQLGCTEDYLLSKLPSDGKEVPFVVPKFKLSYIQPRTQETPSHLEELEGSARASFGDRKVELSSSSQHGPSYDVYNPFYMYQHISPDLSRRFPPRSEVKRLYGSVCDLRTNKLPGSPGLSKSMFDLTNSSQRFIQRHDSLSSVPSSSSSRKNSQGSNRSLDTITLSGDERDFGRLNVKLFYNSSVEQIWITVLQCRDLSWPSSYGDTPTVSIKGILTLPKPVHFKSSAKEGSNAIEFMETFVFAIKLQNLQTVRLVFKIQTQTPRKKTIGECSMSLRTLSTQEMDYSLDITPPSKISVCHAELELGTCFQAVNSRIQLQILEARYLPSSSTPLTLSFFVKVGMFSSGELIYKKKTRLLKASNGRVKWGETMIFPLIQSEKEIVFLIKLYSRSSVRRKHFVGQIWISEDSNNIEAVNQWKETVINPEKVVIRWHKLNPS
UniProt P49327: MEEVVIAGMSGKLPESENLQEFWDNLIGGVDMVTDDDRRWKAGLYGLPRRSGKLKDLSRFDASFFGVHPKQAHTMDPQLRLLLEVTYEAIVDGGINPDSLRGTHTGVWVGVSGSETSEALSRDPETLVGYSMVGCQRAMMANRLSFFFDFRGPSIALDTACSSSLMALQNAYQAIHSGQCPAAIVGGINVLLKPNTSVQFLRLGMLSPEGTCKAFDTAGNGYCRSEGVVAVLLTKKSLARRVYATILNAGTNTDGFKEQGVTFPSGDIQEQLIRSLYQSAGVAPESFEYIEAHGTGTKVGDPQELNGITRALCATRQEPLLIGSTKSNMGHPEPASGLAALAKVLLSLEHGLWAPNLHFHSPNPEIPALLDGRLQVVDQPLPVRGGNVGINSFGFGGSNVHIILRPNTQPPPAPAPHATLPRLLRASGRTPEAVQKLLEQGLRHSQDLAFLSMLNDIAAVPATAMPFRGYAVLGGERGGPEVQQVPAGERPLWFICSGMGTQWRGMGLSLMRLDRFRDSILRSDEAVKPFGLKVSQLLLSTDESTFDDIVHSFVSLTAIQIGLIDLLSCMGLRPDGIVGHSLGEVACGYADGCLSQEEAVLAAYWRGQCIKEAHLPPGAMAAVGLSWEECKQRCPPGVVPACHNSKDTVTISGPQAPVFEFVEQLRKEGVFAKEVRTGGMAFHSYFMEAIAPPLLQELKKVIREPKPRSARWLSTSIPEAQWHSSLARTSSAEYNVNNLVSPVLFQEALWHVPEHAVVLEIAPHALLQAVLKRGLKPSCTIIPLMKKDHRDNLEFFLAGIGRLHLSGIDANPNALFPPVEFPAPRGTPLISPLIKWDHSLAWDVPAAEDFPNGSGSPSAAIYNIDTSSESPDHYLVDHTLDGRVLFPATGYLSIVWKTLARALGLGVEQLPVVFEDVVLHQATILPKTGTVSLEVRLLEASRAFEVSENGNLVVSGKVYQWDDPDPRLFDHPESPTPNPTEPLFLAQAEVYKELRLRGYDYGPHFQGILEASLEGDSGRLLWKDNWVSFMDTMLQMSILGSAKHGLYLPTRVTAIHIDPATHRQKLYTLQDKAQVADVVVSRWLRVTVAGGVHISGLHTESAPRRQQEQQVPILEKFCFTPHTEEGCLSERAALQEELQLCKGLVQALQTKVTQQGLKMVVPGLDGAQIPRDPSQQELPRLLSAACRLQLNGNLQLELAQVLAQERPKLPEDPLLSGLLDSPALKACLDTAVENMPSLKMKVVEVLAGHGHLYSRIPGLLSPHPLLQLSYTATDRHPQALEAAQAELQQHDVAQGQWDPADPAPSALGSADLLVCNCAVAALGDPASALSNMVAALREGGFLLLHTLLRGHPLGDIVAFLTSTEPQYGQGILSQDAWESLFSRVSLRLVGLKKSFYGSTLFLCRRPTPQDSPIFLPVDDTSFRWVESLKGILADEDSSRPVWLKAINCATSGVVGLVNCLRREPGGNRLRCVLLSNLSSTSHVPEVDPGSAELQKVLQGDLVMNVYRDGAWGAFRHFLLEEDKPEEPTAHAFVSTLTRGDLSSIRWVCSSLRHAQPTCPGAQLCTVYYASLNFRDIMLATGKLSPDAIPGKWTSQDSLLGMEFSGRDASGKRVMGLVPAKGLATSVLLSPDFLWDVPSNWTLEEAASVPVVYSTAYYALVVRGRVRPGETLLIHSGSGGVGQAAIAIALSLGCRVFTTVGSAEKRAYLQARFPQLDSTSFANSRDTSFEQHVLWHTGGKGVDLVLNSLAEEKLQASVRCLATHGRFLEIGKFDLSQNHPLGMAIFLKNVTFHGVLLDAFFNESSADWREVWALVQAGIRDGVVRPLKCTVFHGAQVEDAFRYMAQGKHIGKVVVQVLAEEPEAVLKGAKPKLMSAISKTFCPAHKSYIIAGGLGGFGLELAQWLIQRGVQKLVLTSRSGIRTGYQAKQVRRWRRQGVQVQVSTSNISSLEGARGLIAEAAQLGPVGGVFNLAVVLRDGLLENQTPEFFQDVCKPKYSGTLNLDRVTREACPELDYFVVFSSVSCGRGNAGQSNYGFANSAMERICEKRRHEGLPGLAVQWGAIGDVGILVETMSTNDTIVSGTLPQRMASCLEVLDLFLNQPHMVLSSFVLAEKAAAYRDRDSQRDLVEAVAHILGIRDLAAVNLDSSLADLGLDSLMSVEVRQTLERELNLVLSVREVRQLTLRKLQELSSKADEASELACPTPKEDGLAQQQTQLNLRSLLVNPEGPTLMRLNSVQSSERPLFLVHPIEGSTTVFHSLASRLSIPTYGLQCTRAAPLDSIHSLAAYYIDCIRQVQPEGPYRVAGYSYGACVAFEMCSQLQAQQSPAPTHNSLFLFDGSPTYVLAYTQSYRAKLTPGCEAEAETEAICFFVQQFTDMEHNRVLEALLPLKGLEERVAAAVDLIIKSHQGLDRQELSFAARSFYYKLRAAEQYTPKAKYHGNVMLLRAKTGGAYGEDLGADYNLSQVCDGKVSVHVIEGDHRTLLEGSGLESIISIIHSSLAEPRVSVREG
UniProt Q14974: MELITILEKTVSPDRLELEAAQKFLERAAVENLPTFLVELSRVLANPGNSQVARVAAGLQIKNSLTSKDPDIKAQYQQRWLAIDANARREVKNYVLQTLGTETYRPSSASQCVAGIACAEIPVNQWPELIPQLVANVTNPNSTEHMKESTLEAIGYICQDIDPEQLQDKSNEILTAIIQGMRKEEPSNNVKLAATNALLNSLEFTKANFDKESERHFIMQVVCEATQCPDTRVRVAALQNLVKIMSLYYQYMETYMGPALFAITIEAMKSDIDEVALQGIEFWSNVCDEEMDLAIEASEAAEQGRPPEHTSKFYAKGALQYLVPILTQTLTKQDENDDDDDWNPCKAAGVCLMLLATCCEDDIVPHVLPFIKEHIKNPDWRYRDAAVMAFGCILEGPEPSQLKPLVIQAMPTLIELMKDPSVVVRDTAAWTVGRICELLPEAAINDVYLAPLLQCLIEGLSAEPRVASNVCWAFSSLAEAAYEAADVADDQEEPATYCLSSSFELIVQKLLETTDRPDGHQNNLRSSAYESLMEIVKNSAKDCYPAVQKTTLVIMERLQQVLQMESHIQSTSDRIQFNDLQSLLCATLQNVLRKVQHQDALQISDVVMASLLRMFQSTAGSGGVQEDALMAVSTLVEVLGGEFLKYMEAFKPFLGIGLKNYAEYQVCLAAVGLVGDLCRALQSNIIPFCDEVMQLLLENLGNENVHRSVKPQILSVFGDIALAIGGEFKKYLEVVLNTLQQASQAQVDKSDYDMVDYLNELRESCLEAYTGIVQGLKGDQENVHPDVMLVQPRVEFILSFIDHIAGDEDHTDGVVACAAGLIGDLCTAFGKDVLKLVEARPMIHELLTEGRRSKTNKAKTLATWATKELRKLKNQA
UniProt P19474: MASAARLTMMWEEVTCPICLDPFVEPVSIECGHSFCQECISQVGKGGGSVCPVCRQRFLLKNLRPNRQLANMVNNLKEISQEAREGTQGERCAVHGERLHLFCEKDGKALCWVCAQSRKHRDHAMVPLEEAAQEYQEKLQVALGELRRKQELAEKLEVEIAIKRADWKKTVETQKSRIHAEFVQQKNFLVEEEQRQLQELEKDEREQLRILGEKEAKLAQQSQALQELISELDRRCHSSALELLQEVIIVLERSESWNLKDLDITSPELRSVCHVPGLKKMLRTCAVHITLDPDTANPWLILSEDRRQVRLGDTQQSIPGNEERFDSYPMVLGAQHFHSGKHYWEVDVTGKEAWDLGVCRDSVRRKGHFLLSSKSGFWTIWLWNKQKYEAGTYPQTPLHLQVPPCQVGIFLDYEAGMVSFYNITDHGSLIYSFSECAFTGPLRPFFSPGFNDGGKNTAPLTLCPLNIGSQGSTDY

Tests used:
[1] = biological target: FLAG-TC2N (tandem C2 domains, nuclear), full-length (human) (UniProt Q8N9U0); test: co-IP; extracts of TC2N-overexpressing BC cells, IP with anti-Flag antibody and protein A/G agarose beads, 16 h at 4 °C, WB; high glucose condition; normal IgG as negative control
[2] = biological target: Fatty acid synthase (FASN) (human (endogenous in breast carcinoma cell lines)) (UniProt P49327); test: co-IP; extracts of BC cells (M231) with control, FLAG-TC2N full-length or truncation lentivirus, IP with anti-FASN antibody and protein A/G agarose beads, 16 h at 4 °C, WB; high glucose; in one panel cells treated with 20 µM MG132 for 24 h; normal IgG as negative control

| binding [1] | binding [2] | Substance |
| --- | --- | --- |
| binds | – | importinβ (from UniProt Q14974 1-876) |
| binds | binds | Tripartite motif containing 21 (TRIM21) (from UniProt P19474 1-475) (enzyme) |
| – | binds | FLAG-TC2N (tandem C2 domains, nuclear), full-length (from UniProt Q8N9U0 1-490) |
